No constants are given. Whether binding was seen depends on the method and setting. In cells and extracts the contact can be indirect. Binding can be weak; no strength is given.

For assay [1], the target named is T1, Tomato mosaic virus 30-kDa movement protein (Tomato mosaic virus) (UniProt P69513).
T1 sequence: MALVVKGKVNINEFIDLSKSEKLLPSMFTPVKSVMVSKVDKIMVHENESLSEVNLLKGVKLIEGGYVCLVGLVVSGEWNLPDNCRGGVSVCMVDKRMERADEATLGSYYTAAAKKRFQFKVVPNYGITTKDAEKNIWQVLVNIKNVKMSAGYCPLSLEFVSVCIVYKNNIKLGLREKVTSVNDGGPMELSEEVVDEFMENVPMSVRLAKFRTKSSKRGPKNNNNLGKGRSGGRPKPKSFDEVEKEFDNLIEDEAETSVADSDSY
As to the kind of experiment: split reporter; BiFC with N-terminal (nV) and C-terminal (cV) fragments of Venus fused to the C-terminal end of the target proteins (pGWnV3 and pGWcV plasmids); N. benthamiana leaves bombarded, Venus fluorescence seen at 24 h post-bombardment by confocal laser microscopy; MP-nV + MP-cV and 126K-nV + 126K-cV also co-expressed with NtREM-DsRed; some samples stained with aniline blue.

Assay [2] deals with Nt(sNN)REM1.2 (tobacco remorin, NtREM1.2 homolog from Nicotiana tabacum cv. Samsun NN) (Nicotiana tabacum cv. Samsun NN). The description is as above.

Regarding “Nt(sNN)REM1.2 (tobacco remorin, NtREM1.2 homolog from Nicotiana tabacum cv. Samsun NN)”, in assay [1], the binding result is reported as “binds”.

B1: Tomato mosaic virus 30-kDa movement protein (protein, UniProt P69513 1-264)
chain: MALVVKGKVNINEFIDLSKSEKLLPSMFTPVKSVMVSKVDKIMVHENESLSEVNLLKGVKLIEGGYVCLVGLVVSGEWNLPDNCRGGVSVCMVDKRMERADEATLGSYYTAAAKKRFQFKVVPNYGITTKDAEKNIWQVLVNIKNVKMSAGYCPLSLEFVSVCIVYKNNIKLGLREKVTSVNDGGPMELSEEVVDEFMENVPMSVRLAKFRTKSSKRGPKNNNNLGKGRSGGRPKPKSFDEVEKEFDNLIEDEAETSVADSDSY
Consider B1, for which the binding entry in assay [2] was “binds”.

The values above are taken from article PMC5962775.
